Binding data for one substance are collected here from publication PMC5660093, “Structure of SgK223 pseudokinase reveals novel mechanisms of homotypic and heterotypic association” (Nature Communications, 2017).

Chains of the proteins cited; added tags and fusions are not shown.
UniProt Q9H792: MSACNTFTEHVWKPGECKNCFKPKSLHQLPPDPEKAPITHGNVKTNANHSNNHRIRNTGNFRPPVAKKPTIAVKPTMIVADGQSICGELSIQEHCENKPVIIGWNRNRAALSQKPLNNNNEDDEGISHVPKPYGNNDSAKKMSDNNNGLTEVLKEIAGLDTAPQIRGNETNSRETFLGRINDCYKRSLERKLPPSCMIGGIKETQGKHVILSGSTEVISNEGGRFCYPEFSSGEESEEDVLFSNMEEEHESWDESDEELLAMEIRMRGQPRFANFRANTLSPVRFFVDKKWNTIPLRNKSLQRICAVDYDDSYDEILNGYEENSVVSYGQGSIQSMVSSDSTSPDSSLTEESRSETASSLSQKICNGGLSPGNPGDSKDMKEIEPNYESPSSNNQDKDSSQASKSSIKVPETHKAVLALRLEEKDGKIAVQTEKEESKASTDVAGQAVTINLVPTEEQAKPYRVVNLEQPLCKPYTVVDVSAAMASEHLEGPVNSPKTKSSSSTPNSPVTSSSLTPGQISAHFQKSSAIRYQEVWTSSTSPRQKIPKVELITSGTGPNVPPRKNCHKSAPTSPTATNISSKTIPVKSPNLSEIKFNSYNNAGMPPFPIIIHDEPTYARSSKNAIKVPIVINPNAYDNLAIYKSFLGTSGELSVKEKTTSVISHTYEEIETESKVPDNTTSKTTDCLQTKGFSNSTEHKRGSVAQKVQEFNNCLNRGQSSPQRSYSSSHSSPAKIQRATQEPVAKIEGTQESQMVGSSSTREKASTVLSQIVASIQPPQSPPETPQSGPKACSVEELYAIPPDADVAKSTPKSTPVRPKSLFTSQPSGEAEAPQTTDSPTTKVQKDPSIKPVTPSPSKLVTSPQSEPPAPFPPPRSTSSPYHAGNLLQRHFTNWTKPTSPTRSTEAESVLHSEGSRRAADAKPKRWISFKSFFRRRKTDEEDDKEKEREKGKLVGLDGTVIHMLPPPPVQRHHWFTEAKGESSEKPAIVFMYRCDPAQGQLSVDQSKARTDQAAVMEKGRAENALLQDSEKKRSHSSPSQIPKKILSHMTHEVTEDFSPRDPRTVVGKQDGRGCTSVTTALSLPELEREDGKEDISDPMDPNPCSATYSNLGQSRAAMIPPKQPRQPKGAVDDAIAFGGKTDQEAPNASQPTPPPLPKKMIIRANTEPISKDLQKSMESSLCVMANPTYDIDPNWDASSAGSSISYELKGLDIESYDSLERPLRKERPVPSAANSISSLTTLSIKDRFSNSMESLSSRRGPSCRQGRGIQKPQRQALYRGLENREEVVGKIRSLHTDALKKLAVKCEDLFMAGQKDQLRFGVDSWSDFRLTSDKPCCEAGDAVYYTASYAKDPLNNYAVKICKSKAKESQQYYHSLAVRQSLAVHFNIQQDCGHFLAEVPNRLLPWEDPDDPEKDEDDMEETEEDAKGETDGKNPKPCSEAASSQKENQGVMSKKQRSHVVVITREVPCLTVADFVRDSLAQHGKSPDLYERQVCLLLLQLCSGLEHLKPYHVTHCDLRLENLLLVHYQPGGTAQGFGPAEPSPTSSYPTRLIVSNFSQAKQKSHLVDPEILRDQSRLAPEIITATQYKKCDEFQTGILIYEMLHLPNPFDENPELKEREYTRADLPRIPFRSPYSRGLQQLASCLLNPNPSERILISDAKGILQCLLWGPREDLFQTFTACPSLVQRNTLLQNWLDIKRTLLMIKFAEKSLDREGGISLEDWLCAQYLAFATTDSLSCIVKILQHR

In experiment [1] the target is T1, HA-tagged FL SgK223 W1382A (MCF-10A SgK223 KO) (UniProt Q86YV5).
T1 sequence: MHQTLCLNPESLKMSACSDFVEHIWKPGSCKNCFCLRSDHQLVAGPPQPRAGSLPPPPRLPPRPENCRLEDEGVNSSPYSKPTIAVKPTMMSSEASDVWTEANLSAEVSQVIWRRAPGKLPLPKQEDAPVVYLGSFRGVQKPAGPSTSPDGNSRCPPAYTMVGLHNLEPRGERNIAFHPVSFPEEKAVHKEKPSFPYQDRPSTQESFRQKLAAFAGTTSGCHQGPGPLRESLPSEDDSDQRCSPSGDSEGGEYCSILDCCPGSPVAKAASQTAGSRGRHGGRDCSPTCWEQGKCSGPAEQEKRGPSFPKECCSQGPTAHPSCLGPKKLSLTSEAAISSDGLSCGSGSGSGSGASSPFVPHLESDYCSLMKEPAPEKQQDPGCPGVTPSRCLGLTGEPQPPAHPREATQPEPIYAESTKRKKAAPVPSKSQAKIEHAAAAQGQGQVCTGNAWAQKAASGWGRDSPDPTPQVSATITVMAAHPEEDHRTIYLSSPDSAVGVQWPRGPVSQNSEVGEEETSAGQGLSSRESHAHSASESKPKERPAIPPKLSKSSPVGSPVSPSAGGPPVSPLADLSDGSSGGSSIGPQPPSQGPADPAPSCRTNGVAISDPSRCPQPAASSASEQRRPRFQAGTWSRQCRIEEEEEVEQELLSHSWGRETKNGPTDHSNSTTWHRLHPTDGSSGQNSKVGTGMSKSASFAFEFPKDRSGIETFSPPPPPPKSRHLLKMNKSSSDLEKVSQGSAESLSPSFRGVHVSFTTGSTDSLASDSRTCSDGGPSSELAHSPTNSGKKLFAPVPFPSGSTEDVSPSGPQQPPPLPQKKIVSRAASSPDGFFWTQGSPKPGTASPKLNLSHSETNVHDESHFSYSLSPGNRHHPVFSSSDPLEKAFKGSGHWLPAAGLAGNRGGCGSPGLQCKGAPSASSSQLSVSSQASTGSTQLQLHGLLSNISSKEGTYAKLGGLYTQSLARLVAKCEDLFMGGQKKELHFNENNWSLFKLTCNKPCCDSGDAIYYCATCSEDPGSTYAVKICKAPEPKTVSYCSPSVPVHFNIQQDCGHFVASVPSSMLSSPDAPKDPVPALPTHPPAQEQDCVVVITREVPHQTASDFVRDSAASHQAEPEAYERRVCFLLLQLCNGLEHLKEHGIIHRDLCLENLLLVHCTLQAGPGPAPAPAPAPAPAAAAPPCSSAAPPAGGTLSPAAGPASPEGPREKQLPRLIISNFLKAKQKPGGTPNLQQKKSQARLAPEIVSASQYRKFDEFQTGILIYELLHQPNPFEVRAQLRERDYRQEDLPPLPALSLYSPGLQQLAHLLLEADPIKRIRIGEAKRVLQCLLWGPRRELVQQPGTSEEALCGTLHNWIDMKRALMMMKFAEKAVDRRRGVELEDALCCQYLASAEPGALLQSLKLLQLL
The experiment is described as follows: co-IP; HA-tagged FL SgK223 WT or mutants expressed in MCF-10A SgK223 KO cells; immunoprecipitation with anti-HA, blot with anti-SgK269 for the endogenous protein.

In experiment [2] the target is T2, HA-tagged FL SgK223 L966A (MCF-10A SgK223 KO) (UniProt Q86YV5).
T2 sequence: T1 sequence with L966A, A1382W
The description is as above.

Numbering of substitutions follows the chain as printed. Results are given in words; binding and its absence hold for the method and conditions named. In cells and extracts the contact can be indirect. Tags and fused reporters may be left off the sequences shown.

In the case of “endogenous FL SgK269-WT (from UniProt Q9H792 1-1746)”, the binding entry in experiment [1] and in experiment [2] was “no binding” in each case.
